Experimental data as given in PubChem BioAssay AID540276 (National Center for Advancing Translational Sciences (NCATS), 2011).
Screen size: about 300,000 compounds; about 5,400 (1.8%) were called active. The shares of active, inactive and inconclusive entries below differ from those in the screen. The call rests on the fitted dose curve; tested in HEK293 cells. Where the call is inconclusive, the potency comes from a doubtful curve fit.
Potency means the concentration at half of the fitted maximal effect.

Assay: qHTS for inhibitors of binding or entry into cells for Marburg Virus
Conditions: Marburg virus pseudotyped entry inhibition, cell reporter; series mostly up to 37.8 µM
With CCOC(=O)C1(CCOc2ccccc2)CCN(Cc2cc(OC)cc(OC)c2)CC1 the Potency was inconclusive: 1.78 µM [inhibitor, full curve, poor fit]. In the case of COc1ccc(CCN(C)C(=O)Cc2ccc(-c3ccccc3)cc2)cc1OC, the Potency is reported as inconclusive: 10 µM [inhibitor, partial curve, poor fit]. In the case of CCOc1nc(Nc2ccc(OC)cc2)nc(OCC)n1, the Potency is reported as “inactive”. In the case of COCCCN1CC(=O)N2C(c3ccc(OC)c(OC)c3)c3[nH]c4ccccc4c3C[C@H]2C1=O (stereo partly specified), the Potency is reported as inconclusive: 5.62 µM [inhibitor, single point]. For CN1C2CCC1/C(=C\c1ccccc1)C(=O)/C2=C\c1ccccc1, the Potency was active: 14.6 µM. For CCCCSc1nnc2n(-c3ccc(OC)cc3)c(=O)c3c4c(sc3n12)COC(C(C)C)C4 (stereo unspecified), the Potency was “inactive”. In the case of C(=N\Nc1nc2ccccc2s1)/c1cccs1, the Potency is reported as inconclusive: 29.1 µM [inhibitor, single point]. In the case of CC(=O)c1ccc(OCCn2cnc3ccccc32)cc1, the Potency is reported as inconclusive: 0.708 µM [activator, full curve, poor fit]. With CN(CC(=O)NCc1ccc(F)cc1)Cc1cccc(Cl)c1 the Potency was inconclusive: 35.5 µM [inhibitor, single point]. For Cc1cc(=O)oc2cc(NC(=O)C3COc4ccccc4O3)ccc12 (stereo unspecified), the Potency was inconclusive: 29.1 µM [inhibitor, single point]. In the case of CC(Sc1nncs1)C(=O)Nc1ccc(Cl)cn1 (stereo unspecified), the Potency is reported as inconclusive: 0.794 µM [activator, full curve]. For COc1ccc(Oc2coc3cc(OC(=O)/C=C/c4ccc(F)cc4)ccc3c2=O)cc1, the Potency was “inactive”. With CCc1ccccc1NS(=O)(=O)c1ccc2c(c1)CC(=O)N2 the Potency was “inactive”. For CN1CCC(=NNC(=O)c2cn(-c3ccccc3)nc2-c2ccccc2)CC1, the Potency was inconclusive: 10 µM [inhibitor, partial curve, poor fit]. With CCn1c(NCc2c[nH]c3ccccc23)nc2ccccc21 the Potency was active: 11.2 µM. For CC(=O)c1ccc(NC(=O)CSc2nc(N)c3cc4c(nc3n2)CCCC4)cc1, the Potency was “inactive”. For O=C(CCCn1c(=O)[nH]c2ccccc2c1=O)Nc1ccc(F)cc1, the Potency was “inactive”. For CC(C)CN(C(=O)CCC(=O)OCc1ccc(Cl)cc1Cl)c1c(N)n(CC(C)C)c(=O)[nH]c1=O, the Potency was inconclusive: 15.8 µM [inhibitor, single point]. For COc1ccc(CCNC(=O)Cn2nc(C(=O)O)c3ccccc3c2=O)cc1OC, the Potency was “inactive”. With O=C(Cc1ccc(Cl)cc1)N1CCOCC1 the Potency was “inactive”. In the case of CCOC(=O)Cc1csc(NC(=S)NC(=O)CC(C)C)n1, the Potency is reported as inconclusive: 10 µM [inhibitor, partial curve, poor fit]. In the case of CCc1ccc(NC(=O)Cn2c(=O)n(CCC(C)C)c(=O)c3cccnc32)cc1, the Potency is reported as inconclusive: 6.31 µM [activator, single point]. In the case of CCCCCCC1CCC(c2nc(-c3ccncc3)no2)CC1 (stereo unspecified), the Potency is reported as “inactive”. For CCOC(=O)N1CCc2c(sc3c2C(=O)NC(c2cc(OC)c(OC)c(OC)c2)N3)C1 (stereo unspecified), the Potency was inconclusive: 12.6 µM [inhibitor, single point]. In the case of CC(C)(C)C(=O)COC(=O)c1ccc(O)cc1, the Potency is reported as “inactive”. With CCOc1ccc(S(=O)(=O)N2c3ccccc3CC2C)cc1 (stereo unspecified) the Potency was inconclusive: 1.16 µM [inhibitor, full curve, poor fit]. For CC(=O)Nc1sc2c(c1C(N)=O)CCC2, the Potency was “inactive”. For Fc1ccccc1/C=N/N1CCN(Cc2ccccc2Cl)CC1, the Potency was “inactive”. In the case of CC(=O)c1c(C)nc2ccc(C)cc2c1-c1ccccc1, the Potency is reported as inconclusive: 6.31 µM [activator, single point]. With COc1ccccc1C(=O)NCCC(=O)N1CC(=O)Nc2ccccc21 the Potency was inconclusive: 0.562 µM [activator, full curve, poor fit]. In the case of NC(=O)COc1ccc(/C=C2\C(=O)ON=C2c2ccccc2)cc1, the Potency is reported as inconclusive: 6.31 µM [activator, single point]. With COc1ccc(/C(C)=N/Nc2ccc(C(=O)O)cc2)cc1OC the Potency was inconclusive: 1.26 µM [activator, single point]. In the case of Cc1ccc2oc(-c3ccc(C)c(NC(=O)C(C)(C)Oc4ccc(Cl)cc4)c3)nc2c1, the Potency is reported as inconclusive: 11.2 µM [activator, partial curve, poor fit]. For C=CCc1c(C)nc(-c2ccccc2)nc1Nc1ccc(O)cc1, the Potency was inconclusive: 3.55 µM [inhibitor, partial curve, poor fit]. With NNc1nc2c(F)cc(F)cc2s1 the Potency was inconclusive: 5.62 µM [activator, partial curve, poor fit]. In the case of Nc1ccc(-c2ncc(-c3ccccc3)o2)cc1, the Potency is reported as inconclusive: 0.708 µM [inhibitor, full curve, poor fit]. With COc1ccccc1CNc1nc(-c2cc(C)n(C)c2C)cs1 the Potency was inconclusive: 3.98 µM [inhibitor, partial curve, poor fit]. For Cc1cc(C)n2nc(SCCCC(=O)c3ccc(F)cc3)nc2n1, the Potency was inconclusive: 0.562 µM [activator, full curve, poor fit]. For CC(=O)c1ccc(NS(=O)(=O)c2c(C)nc3scc(C)n3c2=O)cc1, the Potency was “inactive”. In the case of CCC(C)(C)C1CCC2(CC1)NC(=O)N(CC(=O)NC(C)CCc1ccccc1)C2=O (stereo unspecified), the Potency is reported as “inactive”. For CC12CCC(=O)N1C(C(=O)Nc1ccccc1F)CS2 (stereo unspecified), the Potency was inconclusive: 2.51 µM [activator, full curve, poor fit]. In the case of COc1ccccc1N1Cc2ccccc2C1, the Potency is reported as “inactive”. For C/C(CC(=O)NCc1ccccc1)=N\NC(N)=S, the Potency was inconclusive: 35.5 µM [inhibitor, single point]. In the case of COc1cccc(NC(=O)NC2CCCc3ccccc32)c1 (stereo unspecified), the Potency is reported as inconclusive: 35.5 µM [inhibitor, single point]. With O=C(OCC1CC(c2ccccc2Cl)=NO1)c1ccc(Br)cc1 (stereo unspecified) the Potency was inconclusive: 35.5 µM [activator, single point]. With CC1CCN(C(=O)CCN2C(=O)/C(=C/c3cccs3)SC2=S)CC1 the Potency was inconclusive: 10 µM [inhibitor, partial curve, poor fit]. With Cn1c(=O)n(C)c2cc([N+](=O)[O-])c(N3CCN(C(=O)c4cccc(Cl)c4)CC3)cc21 the Potency was inconclusive: 11.2 µM [inhibitor, partial curve, poor fit]. In the case of O=[N+]([O-])c1ccc(CS(=O)c2ccccc2)cc1 (stereo unspecified), the Potency is reported as inconclusive: 12.6 µM [activator, single point]. For COc1ccc(-c2cn3cccc(C)c3n2)cc1F, the Potency was “inactive”. For CC(C)(C)C1C=C(Sc2ccccc2)C(=O)O1 (stereo unspecified), the Potency was inconclusive: 35.5 µM [inhibitor, single point]. For Cc1csc(=O)n1CCC(=O)OCC(=O)NCc1ccc(F)cc1, the Potency was inconclusive: 1 µM [activator, full curve, poor fit]. With COc1ccccc1N(CC(=O)N1CCc2ccccc2C1)S(C)(=O)=O the Potency was “inactive”. With CC1(NC(=O)Nc2cccc3ccccc23)CCS(=O)(=O)C1 (stereo unspecified) the Potency was inconclusive: 35.5 µM [activator, single point]. In the case of O=C1c2ccccc2C(=O)N1CN(C(=O)COc1ccc(Cl)cc1Cl)c1cccc(F)c1, the Potency is reported as inconclusive: 14.1 µM [activator, single point]. For COc1ccc(C(=O)NCC(=O)OCC(=O)N2CCN(S(=O)(=O)c3ccccc3)CC2)cc1, the Potency was “inactive”. With O=S(=O)(N[C@H](CO)c1ccccc1)c1ccc(Br)cc1F the Potency was “inactive”. In the case of Cc1cc2nc(-c3cccnc3SCC(=O)NCc3ccco3)[nH]c2cc1C, the Potency is reported as “inactive”. With O=C(COC(=O)c1ccccc1NC(=O)c1ccco1)Nc1ccc2c(c1)OCO2 the Potency was inconclusive: 8.91 µM [activator, partial curve, poor fit]. For CC(CCn1cccn1)NC(=O)c1cc(COc2ccc(F)cc2F)on1 (stereo unspecified), the Potency was inconclusive: 6.31 µM [activator, single point]. With NC(=O)c1ccc(NC(=O)COC(=O)c2c3c(nc4ccccc24)/C(=C\c2ccc4c(c2)OCO4)CCC3)cc1 the Potency was inconclusive: 23.1 µM [inhibitor, partial curve, poor fit]. With O=C1N(Cc2ccccc2Cl)c2ccccc2C1(O)c1c[nH]c2ccccc12 (stereo unspecified) the Potency was “inactive”. With CC1=C(C(=O)OCC2CCCCC2)C(c2ccc(Cl)cc2)CC(=O)N1 (stereo unspecified) the Potency was inconclusive: 35.5 µM [inhibitor, single point]. In the case of O=C(Cc1ccc([N+](=O)[O-])cc1)Nc1ccc2c(c1)C(=O)NC2=O, the Potency is reported as inconclusive: 35.5 µM [activator, single point]. With CCOCCOC(=O)c1ccc(NC(=O)c2cc(OC)c(OC)c(OC)c2Br)cc1 the Potency was “inactive”. For O=C(CSc1nc2ccccc2s1)NC1CCS(=O)(=O)C1 (stereo unspecified), the Potency was “inactive”. With CC(C)(C)OC(=O)NCCC(=O)N/N=C/c1cccc2nccnc12 the Potency was inconclusive: 0.316 µM [inhibitor, full curve, poor fit]. For Cc1c(C(=O)c2ccccc2)oc2ccc3ccccc3c12, the Potency was inconclusive: 1.26 µM [activator, partial curve, poor fit]. In the case of Cc1nc(Oc2ccc(S(=O)(=O)N3CCOCC3)cc2Cl)c2c3c(sc2n1)CCCC3, the Potency is reported as inconclusive: 35.5 µM [inhibitor, single point]. In the case of O=C(C1CCCCC1)N1C[C@H](n2cc(-c3ccc(F)cc3)nn2)[C@H](O)C[C@@H]1c1ccc(Cl)cc1, the Potency is reported as active: 3.53 µM. With O=C(CSc1nnc(-c2c[nH]c3ccccc23)o1)c1ccccc1 the Potency was inconclusive: 29.1 µM [activator, single point]. With CCCn1nc(NC(=O)c2ccncc2)c2cc3ccccc3nc21 the Potency was inconclusive: 10 µM [inhibitor, partial curve, poor fit].
